According to the supplement of paper PMC4604168 (melanoma cell lines):
The other results are listed elsewhere or left out. Many values rest on one well or one pass, so single values are uncertain.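 Imaging used 1,536-well plates; nuclei positive for cleaved PARP by antibody were divided by total DNA-stained nuclei to yield the apoptosis fraction. Doses for screening kept most cells viable, and cell lines differ markedly in resting and induced cleaved-PARP levels.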

These compounds were tested on LB2518-MEL (assay: cleaved PARP positive nuclei fraction relative to DMSO control; melanoma cells; higher = more apoptosis). Conditions: library dose: low library concentration; 72 h.

Compound | cleaved PARP positive nuclei fraction
O=C(O)c1ccc2c(c1)nc(Nc1cccc(Cl)c1)c1ccncc12 + Nc1nc(F)nc2c1ncn2[C@@H]1O[C@H](CO)[C@@H](O)[C@@H]1O [fludarabine] (first compound 0.4 µM, partner dose 0.2 µM) | 26%
O=C(O)c1ccc2c(c1)nc(Nc1cccc(Cl)c1)c1ccncc12 + Nc1cccc2c1CN(C1CCC(=O)NC1=O)C2=O [lenalidomide] (first compound 0.4 µM, partner dose 1 µM) | 163%
Nc1ncn([C@H]2C[C@H](O)[C@@H](CO)O2)c(=O)n1 [decitabine] + OCc1c[nH]c2ccccc12 [Indole-3-carbinol] (first compound 0.1 µM, partner dose 0.8 µM) | 101%
CC(C)C[C@H](NC(=O)[C@H](Cc1ccccc1)NC(=O)c1cnccn1)B(O)O [Bortezomib] + Cn1c(Nc2ccc(C(F)(F)F)cc2)nc2cc(Oc3ccnc(-c4ncc(C(F)(F)F)[nH]4)c3)ccc21 [CHIR265] (first compound 0.001 µM, partner dose 0.08 µM) | 332%
Cn1c(=O)n(-c2ccc(C(C)(C)C#N)cc2)c2c3cc(-c4cnc5ccccc5c4)ccc3ncc21 + C[C@]1(c2nc3c(C(N)=O)cccc3[nH]2)CCCN1 [Veliparib] (first compound 0.004 µM, partner dose 1.4 µM) | 83.8%
CS(=O)(=O)CCNCc1ccc(-c2ccc3ncnc(Nc4ccc(OCc5cccc(F)c5)c(Cl)c4)c3c2)o1 [lapatinib] + COCC[n+]1c2c(n(Cc3cnccn3)c1C)C(=O)c1ccccc1C2=O [YM155] (first compound 0.8 µM, partner dose 0.0004 µM) | 87%
CCCS(=O)(=O)Nc1ccc(F)c(C(=O)c2c[nH]c3ncc(Cl)cc23)c1F + Nc1nc(F)nc2c1ncn2[C@@H]1O[C@H](CO)[C@@H](O)[C@@H]1O [fludarabine] (first compound 0.08 µM, partner dose 0.2 µM) | 95.2%
Cc1cc(Nc2cc(N3CCN(C)CC3)nc(/C=C/c3ccccc3)n2)n[nH]1 + CO[C@H]1C[C@@H]2CC[C@@H](C)[C@@](O)(O2)C(=O)C(=O)N2CCCC[C@H]2C(=O)O[C@H]([C@H](C)C[C@@H]2CC[C@@H](OCCO)[C@H](OC)C2)CC(=O)[C@H](C)/C=C(\C)[C@@H](O)[C@@H](OC)C(=O)[C@H](C)C[C@H](C)/C=C/C=C/C=C/1C [everolimus] (first compound 0.04 µM, partner dose 0.02 µM) | 319%
CCCS(=O)(=O)Nc1ccc(F)c(C(=O)c2c[nH]c3ncc(Cl)cc23)c1F + Nc1ncn([C@H]2C[C@H](O)[C@@H](CO)O2)c(=O)n1 [decitabine] (first compound 0.08 µM, partner dose 0.1 µM) | 321%

What follows are compounds tested on LOXIMVI in the same assay as above. Conditions: library dose: low library concentration; 72 h.

Compound | cleaved PARP positive nuclei fraction
Cn1c(=O)n(-c2ccc(C(C)(C)C#N)cc2)c2c3cc(-c4cnc5ccccc5c4)ccc3ncc21 + CN1CCN(c2ccc3nc(-c4c(N)c5c(F)cccc5[nH]c4=O)[nH]c3c2)CC1 [Dovitinib] (first compound 0.004 µM, partner dose 0.1 µM) | 128%
O=C(O)c1ccc2c(c1)nc(Nc1cccc(Cl)c1)c1ccncc12 + COc1ccc(Cl)c(Nc2nc3ccccc3nc2NS(=O)(=O)c2cccc(NC(=O)C(C)(C)N)c2)c1 [XL147] (first compound 0.4 µM, partner dose 0.8 µM) | 132%
CNC(=O)c1cc(Oc2ccc(NC(=O)Nc3ccc(Cl)c(C(F)(F)F)c3)cc2)ccn1 [sorafenib] + OCc1c[nH]c2ccccc12 [Indole-3-carbinol] (first compound 0.4 µM, partner dose 0.8 µM) | 106%
CO[C@H]1C[C@@H]2CC[C@@H](C)[C@@](O)(O2)C(=O)C(=O)N2CCCC[C@H]2C(=O)O[C@H]([C@H](C)C[C@@H]2CC[C@@H](OCCO)[C@H](OC)C2)CC(=O)[C@H](C)/C=C(\C)[C@@H](O)[C@@H](OC)C(=O)[C@H](C)C[C@H](C)/C=C/C=C/C=C/1C [everolimus] + O=C(O)c1ccc2c(c1)nc(Nc1cccc(Cl)c1)c1ccncc12 [CX4945] (first compound 0.02 µM, partner dose 0.4 µM) | 51.1%
Cn1c(=O)n(-c2ccc(C(C)(C)C#N)cc2)c2c3cc(-c4cnc5ccccc5c4)ccc3ncc21 + O=C(O)c1ccc2c(c1)nc(Nc1cccc(Cl)c1)c1ccncc12 [CX4945] (first compound 0.004 µM, partner dose 0.4 µM) | 74.1%
CNC(=O)c1cc(Oc2ccc(NC(=O)Nc3ccc(Cl)c(C(F)(F)F)c3)cc2)ccn1 [sorafenib] + Cn1c(Nc2ccc(C(F)(F)F)cc2)nc2cc(Oc3ccnc(-c4ncc(C(F)(F)F)[nH]4)c3)ccc21 [CHIR265] (first compound 0.4 µM, partner dose 0.08 µM) | 127%
Cc1cc(Nc2cc(N3CCN(C)CC3)nc(/C=C/c3ccccc3)n2)n[nH]1 + NC1(c2ccc(-c3nc4ccn5c(=O)[nH]nc5c4cc3-c3ccccc3)cc2)CCC1 [MK2206] (first compound 0.04 µM, partner dose 0.4 µM) | 107%
CC(C)C[C@H](NC(=O)[C@H](Cc1ccccc1)NC(=O)c1cnccn1)B(O)O [Bortezomib] + CS(=O)(=O)CCNCc1ccc(-c2ccc3ncnc(Nc4ccc(OCc5cccc(F)c5)c(Cl)c4)c3c2)o1 [lapatinib] (first compound 0.001 µM, partner dose 0.8 µM) | 236%
CO[C@H]1C[C@@H]2CC[C@@H](C)[C@@](O)(O2)C(=O)C(=O)N2CCCC[C@H]2C(=O)O[C@H]([C@H](C)C[C@@H]2CC[C@@H](OCCO)[C@H](OC)C2)CC(=O)[C@H](C)/C=C(\C)[C@@H](O)[C@@H](OC)C(=O)[C@H](C)C[C@H](C)/C=C/C=C/C=C/1C [everolimus] + Cn1nnc2c(C(N)=O)ncn2c1=O [temozolomide] (first compound 0.02 µM, partner dose 2 µM) | 149%
O=C(O)[C@@H]1[O][Sb](=[O])([O][Sb]2(=[O])[O][C@H]([C@H](O)CO)[C@H](O)[C@H](C(=O)O)[O]2)[O][C@H]([C@H](O)CO)[C@@H]1O (stereo partly drawn) [stibogluconate] + C#Cc1cccc(Nc2ncnc3cc(OCCOC)c(OCCOC)cc23)c1 [erlotinib] (first compound 2 µM, partner dose 0.8 µM) | 84.6%
C=C(c1ccc(C(=O)O)cc1)c1cc2c(cc1C)C(C)(C)CCC2(C)C [Bexarotene] + Nc1nc(F)nc2c1ncn2[C@@H]1O[C@H](CO)[C@@H](O)[C@@H]1O [fludarabine] (first compound 2 µM, partner dose 0.2 µM) | 103%
CNC(=O)c1cc(Oc2ccc(NC(=O)Nc3ccc(Cl)c(C(F)(F)F)c3)cc2)ccn1 [sorafenib] + C=CCNC1=C2C[C@@H](C)C[C@H](OC)[C@H](O)[C@@H](C)/C=C(\C)[C@H](OC(N)=O)[C@@H](OC)/C=C\C=C(/C)C(=O)NC(=CC1=O)C2=O [Tanespimycin] (first compound 0.4 µM, partner dose 0.002 µM) | 56.5%
Cn1c(=O)n(-c2ccc(C(C)(C)C#N)cc2)c2c3cc(-c4cnc5ccccc5c4)ccc3ncc21 + Nc1ncn([C@H]2C[C@H](O)[C@@H](CO)O2)c(=O)n1 [decitabine] (first compound 0.004 µM, partner dose 0.1 µM) | 156%
CC(C)C[C@H](NC(=O)[C@H](Cc1ccccc1)NC(=O)c1cnccn1)B(O)O [Bortezomib] + C=C(c1ccc(C(=O)O)cc1)c1cc2c(cc1C)C(C)(C)CCC2(C)C [Bexarotene] (first compound 0.001 µM, partner dose 2 µM) | 192%
CCCS(=O)(=O)Nc1ccc(F)c(C(=O)c2c[nH]c3ncc(Cl)cc23)c1F + COCC[n+]1c2c(n(Cc3cnccn3)c1C)C(=O)c1ccccc1C2=O [YM155] (first compound 0.08 µM, partner dose 0.0004 µM) | 226%
CN1CCN(c2ccc3nc(-c4c(N)c5c(F)cccc5[nH]c4=O)[nH]c3c2)CC1 [Dovitinib] + Cn1c(Nc2ccc(C(F)(F)F)cc2)nc2cc(Oc3ccnc(-c4ncc(C(F)(F)F)[nH]4)c3)ccc21 [CHIR265] (first compound 0.1 µM, partner dose 0.08 µM) | 23.3%
Cn1c(=O)n(-c2ccc(C(C)(C)C#N)cc2)c2c3cc(-c4cnc5ccccc5c4)ccc3ncc21 + Cn1nnc2c(C(N)=O)ncn2c1=O [temozolomide] (first compound 0.004 µM, partner dose 2 µM) | 73%
CC(C)C[C@H](NC(=O)[C@H](Cc1ccccc1)NC(=O)c1cnccn1)B(O)O [Bortezomib] + C[C@@H](Oc1cc(-c2cnn(C3CCNCC3)c2)cnc1N)c1c(Cl)ccc(F)c1Cl [Crizotinib] (first compound 0.001 µM, partner dose 0.2 µM) | 74.9%
O=C(O)[C@@H]1[O][Sb](=[O])([O][Sb]2(=[O])[O][C@H]([C@H](O)CO)[C@H](O)[C@H](C(=O)O)[O]2)[O][C@H]([C@H](O)CO)[C@@H]1O (stereo partly drawn) [stibogluconate] + OCc1c[nH]c2ccccc12 [Indole-3-carbinol] (first compound 2 µM, partner dose 0.8 µM) | 127%

Reprinted at random: two entries already listed.
Compound | cleaved PARP positive nuclei fraction
CC(C)C[C@H](NC(=O)[C@H](Cc1ccccc1)NC(=O)c1cnccn1)B(O)O [Bortezomib] + C=C(c1ccc(C(=O)O)cc1)c1cc2c(cc1C)C(C)(C)CCC2(C)C [Bexarotene] (first compound 0.001 µM, partner dose 2 µM) | 192%
CO[C@H]1C[C@@H]2CC[C@@H](C)[C@@](O)(O2)C(=O)C(=O)N2CCCC[C@H]2C(=O)O[C@H]([C@H](C)C[C@@H]2CC[C@@H](OCCO)[C@H](OC)C2)CC(=O)[C@H](C)/C=C(\C)[C@@H](O)[C@@H](OC)C(=O)[C@H](C)C[C@H](C)/C=C/C=C/C=C/1C [everolimus] + Cn1nnc2c(C(N)=O)ncn2c1=O [temozolomide] (first compound 0.02 µM, partner dose 2 µM) | 149%
